# Results taken from PubChem BioAssay AID2685 (National Center for Advancing Translational Sciences (NCATS), 2010).
# The other results are listed elsewhere or left out. These are further read-outs of the screen, such as a control signal, another cell line or another target. No call is given for them. The list favours compounds with an active or inconclusive main result. Words in brackets tell the shape of the fitted curve; partial curves, single points and poor fits give uncertain potencies.
# Assay: qHTS Assay for Lipid Storage Modulators in Drosophila S3 Cells;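 on cell number change: cells counted by Cell Tracker Red CMTPX staining in the red channel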
# Settings: BODIPY lipid droplet fluorescence, 18-24 h; for cell number change: measured here: cell count max response, cells fed with added oleic acid
# Procedure, shortened: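 Drosophila S3 cells loaded with oleic acid (400 uM, as added) and compounds at several concentrations; lipid droplets imaged by 488-nm laser-scanning cytometry, 500–530 nm intensity and object ratio to cell channel. Percent activity normalized to 20 uM Triacsin C.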
# [1] = measured here: cell number channel AC50, cells fed with added oleic acid
# [2] = measured here: lipid fluorescence (Fed channel) AC50, cells fed with added oleic acid
SMILES,cell number change,AC50 [1],AC50 [2]
CN(CCNC(=O)Cn1c(=O)sc2ccccc21)Cc1ccccc1,-13.6%,–,–
C=CCOc1ccc(C2NC(=O)NC(C)=C2C(=O)OC)cc1 (stereo not drawn),101%,"16400 nM [rising, single point]","18400 nM [rising, partial curve]"
CCOC(=O)c1c(NC(=O)CN2C(=O)NC3(CCCCC3C)C2=O)sc(C(=O)N(C)C)c1C (stereo not drawn),-1.65%,–,"1160 nM [rising, full curve]"
CC(C)c1ccccc1OCCNC(=O)c1cccnc1,6.1%,–,"116 nM [rising, full curve, poor fit]"
COc1cccc(NC(=O)Nc2ccc3c(c2)N(C)C(=O)CS3)c1,–,"1460 nM [rising, partial curve]","2060 nM [rising, partial curve]"
CCC(=O)N/C=C/n1cnc2cc(C(F)(F)F)ccc21,-22.6%,–,–
COc1ccc(CNC(=O)CCNS(=O)(=O)c2ccc(Br)s2)cc1,6.31%,–,"29100 nM [rising, single point]"
Cc1noc(C)c1C(=O)Nc1nc(-c2cc(F)ccc2F)cs1,-2.03%,–,"29100 nM [rising, single point]"
CCn1cc(-c2cc(C(F)(F)F)n3nc(C(=O)O)cc3n2)c(C)n1,11.8%,–,"6510 nM [rising, single point]"
CC1CCN(C(=O)COC(=O)C23CC4CC(CC(O)(C4)C2)C3)CC1,10.7%,–,"116 nM [rising, full curve]"
O=C(COc1ccc(S(=O)(=O)N2CCOCC2)cc1)N1CCN(c2ccccc2)CC1,-8.41%,–,"366 nM [falling, partial curve, poor fit]"
CN1CCSc2ccc(C(=O)NCc3ccccc3)cc21,9.22%,–,–
CC(CO)N1CCS(=O)(=O)CC1 (stereo not drawn),-25.7%,"65.1 nM [falling, full curve, poor fit]","4110 nM [falling, full curve]"
CCOC(=O)N1CCN(C(=O)CN(C)S(=O)(=O)c2ccc(OC)c(OC)c2)CC1,13.1%,–,"146 nM [rising, single point]"
COc1ccc(-n2cnnc2SCC(=O)Nc2ccc(C(N)=O)cc2)cc1,-3.97%,–,"25900 nM [falling, single point]"
C/C(COc1ccccc1)=N\NC(=O)c1nnn(-c2nonc2N)c1CSc1ccccc1,-5.73%,"6.51 nM [falling, full curve, poor fit]",–
Cc1ccc(C)c(NC(=O)c2cc(-c3cc(C)c(C)cc3O)n[nH]2)c1,-34.2%,"1640 nM [falling, full curve, poor fit]",–

# Retrieved by structure from the list above, two records:
SMILES,cell number change,AC50 [1],AC50 [2]
COc1ccc(-n2cnnc2SCC(=O)Nc2ccc(C(N)=O)cc2)cc1,-3.97%,–,"25900 nM [falling, single point]"
COc1ccc(CNC(=O)CCNS(=O)(=O)c2ccc(Br)s2)cc1,6.31%,–,"29100 nM [rising, single point]"
